This is one part of the list. Further columns of the screen follow, without active or inactive calls. Most of these compounds were active or inconclusive in the main read-out, so they are no random draw. The note in brackets gives the kind of curve behind each potency; many fits are weak.
Assay: qHTS Assay to Find Inhibitors of Chronic Active B-Cell Receptor Signaling
Conditions: ABC-DLBCL IkBa-CBG/CBR reporter, luminescence ratio (green luciferase fused to IkBa over red control in TMD8 lymphoma cells), 4 h
Summary of the method: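 TMD8 human ABC-DLBCL cells with doxycycline-inducible IκBα–green luciferase fusion and unfused red luciferase, in 0.5% FBS medium; compounds up to 46 uM, 4 h at 37C. Green/red luminescence ratio, filter-overlap corrected, fitted to concentration-response curves.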

[1] = measured here: CBR red luminescence, cell number
[2] = measured here: IkBa-CBG green luminescence

Row | SMILES | AC50 [1] | AC50 [2]
1 | O=c1oc2ccccc2n1Cc1cccc(Cl)c1 | 6.31 µM [falling, single point] | 
2 | Cn1c(O)c(C(=NCCN2CCCCC2)c2ccccc2Cl)c(=O)n(C)c1=O | 35.5 µM [rising, single point] | 
3 | O=C1NC(=O)C(=Cc2ccc(N3CCN(C(=O)c4ccccc4)CC3)c([N+](=O)[O-])c2)C(=O)N1 | 5.62 µM [falling, partial curve, poor fit] | 
4 | O=C(c1ccccc1)c1ccccc1N=Cc1c(O)[nH]c(=O)[nH]c1=O | 3.55 µM [rising, full curve] | 
5 | O=C(c1ccc(F)cc1Cl)N1CCC2(CC1)OCCO2 | 0.0891 µM [rising, full curve, poor fit] | 
6 | COc1cc(Cn2c(N)c(C(=O)NCc3ccco3)c3nc4ccccc4nc32)cc(OC)c1OC | 2.31 µM [rising, partial curve] | 3.66 µM [falling, single point]
7 | COC(=O)C1=C(c2ccc(-c3ccccc3)c(F)c2)C[C@@H]2CC[C@H]1N2C(=O)NCCOc1ccccc1 | 25.9 µM [falling, single point] | 
8 | CN(C)C(=O)N1CCN(c2nc(-c3ccccc3)cs2)CC1 | 1.58 µM [rising, partial curve] | 
9 | CN(C)C(=O)Nc1cccc(OC(=O)N(C)C)c1 | 0.146 µM [rising, full curve, poor fit] | 
10 | Cc1ccc2c(c1)C1CN(C)CCC1N2C(=O)c1cccs1 (stereo not given) | 1 µM [rising, partial curve, poor fit] | 
11 | COC(=O)NC(=C(Cl)Cl)P(=O)(c1ccccc1)c1ccccc1 | 35.5 µM [rising, partial curve, poor fit] | 
12 | COC(=O)C1=C(c2ccc(F)cc2F)C[C@@H]2CC[C@H]1N2C(=O)NCCOc1ccc(OC)cc1 | 0.517 µM [falling, full curve, poor fit] | 
13 | CC(C)(C)OC(=O)c1c(N)n(Cc2ccco2)c2nc3ccccc3nc12 | 1.16 µM [falling, full curve, poor fit] | 1.84 µM [rising, partial curve, poor fit]
14 | c1ccc2nc(OCCN3CC3)ccc2c1 | 17.8 µM [rising, single point] | 
15 | O=P(OCC(F)(F)C(F)F)(N1CCCCC1)N1CCCCC1 | 20.6 µM [rising, single point] | 
16 | CCCCn1c(=O)c(C(=O)Nc2nc3ccccc3[nH]2)c(O)c2ccccc21 | 0.231 µM [falling, full curve] | 
17 | Cc1cccc(Cn2cccc(C(=O)Nc3cc(C)on3)c2=O)c1 | 0.0891 µM [falling, full curve, poor fit] | 
18 | COc1ccc(C(=O)N2CCCC2=O)cc1 | 22.4 µM [rising, single point] | 
19 | COc1cc(CC2(CCc3ccncc3)C(=O)NC(=O)NC2=O)cc(OC)c1OC | 7.08 µM [rising, partial curve] | 
20 | COc1nc(NC(C)C)nc(NC(C)C)n1 | 29.1 µM [rising, single point] | 
21 | COc1ccc(CCNCc2ccsc2)cc1OC | 12.6 µM [falling, partial curve] | 

Row | SMILES | AC50 [1] | AC50 [2]
22 | CN(C)C1(CNC(=O)Nc2ccc(Cl)c(Cl)c2)CCCCC1 | 11.2 µM [falling, partial curve, poor fit] | 
23 | COP(=O)(/C=C(\Cl)c1ccccc1)/C=C(\Cl)c1ccccc1 | 17.8 µM [rising, partial curve] | 
24 | c1ccc2c(c1)oc1c(NCc3ccc4c(c3)OCO4)ncnc12 | 12.6 µM [falling, single point] | 
25 | CC[C@H](OC(C)=O)C(C[C@H](C)N(C)C)(c1ccccc1)c1ccccc1 | 29.1 µM [falling, single point] | 
26 | COC(=O)C1=C(c2ccc(OCc3ccccc3)cc2)C[C@@H]2CC[C@H]1N2C(=O)NCc1ccc(OC)c(OC)c1 | 9.2 µM [falling, partial curve] | 5.17 µM [rising, partial curve, poor fit]
27 | Cc1nc2cc(C(=O)N3CCC4(CC3)OCCO4)ccc2n1-c1cccc(F)c1 | 0.0116 µM [rising, full curve, poor fit] | 
28 | O=c1c2ccccc2[nH]c(=S)n1-c1ccc(Br)cc1 | 2.24 µM [falling, full curve] | 
29 | Cc1nnc2ccc(N3CCN(C)CC3)nn12 | 12.6 µM [rising, partial curve, poor fit] | 
30 | CCn1c(O)c(N=Nc2ccc(S(=O)(=O)N3CCOCC3)cc2)c(=O)n(CC)c1=S | 0.1 µM [falling, full curve, poor fit] | 
31 | CCCCOC(=O)c1ccccc1C(=O)OCc1ccccc1 | 16.4 µM [rising, single point] | 
32 | COc1ccc(Cn2c(N)c(C(=O)NCc3ccco3)c3nc4ccccc4nc32)cc1 | 5.62 µM [falling, full curve] | 
33 | COc1cccc(C(=O)NCC(=O)N2CCC(C)CC2)c1 | 12.6 µM [falling, partial curve] | 
34 | O=[N+]([O-])c1ccc(N2CCNCC2)cc1NCc1ccco1 | 29.1 µM [rising, single point] | 
35 | C=CCn1c(O)c(C(C)=NCc2ccc3c(c2)OCO3)c(=O)[nH]c1=O | 11.2 µM [falling, partial curve, poor fit] | 
36 | FC(F)(F)/C(=N\P(=S)(N1CCOCC1)N1CCOCC1)N1CCOCC1 | 0.651 µM [falling, full curve, poor fit] | 
37 | O=c1[nH]c(=O)n(Cc2ccco2)c(O)c1C=NCCCn1ccnc1 | 29.1 µM [falling, partial curve, poor fit] | 
38 | CCc1c(C)nc(N)nc1N1N=C1SC(C(C)=O)C(C)=O | 6.31 µM [falling, full curve] | 
39 | CCOc1ccc(-n2c(O)c(C=NCCCn3ccnc3)c(=O)[nH]c2=O)cc1 | 20.6 µM [rising, partial curve, poor fit] | 
40 | CCc1ccc(N2C(=O)NC(=O)/C(=C/c3ccsc3)C2=O)cc1 | 31.6 µM [rising, single point] | 
41 | COc1cccc(CNCCc2c[nH]c3ccccc23)c1OCc1ccccc1F | 10 µM [falling, partial curve, poor fit] | 
42 | CC1CCC(N2CCN(C(=O)COc3ccccc3)CC2)CC1 (stereo not given) | 35.5 µM [rising, single point] | 

3 structures already listed, ordered by SMILES length, descending.
Row | SMILES | AC50 [1] | AC50 [2]
25 | CC[C@H](OC(C)=O)C(C[C@H](C)N(C)C)(c1ccccc1)c1ccccc1 | 29.1 µM [falling, single point] | 
13 | CC(C)(C)OC(=O)c1c(N)n(Cc2ccco2)c2nc3ccccc3nc12 | 1.16 µM [falling, full curve, poor fit] | 1.84 µM [rising, partial curve, poor fit]
10 | Cc1ccc2c(c1)C1CN(C)CCC1N2C(=O)c1cccs1 (stereo not given) | 1 µM [rising, partial curve, poor fit] | 

Further compounds

Row | SMILES | AC50 [1] | AC50 [2]
43 | COc1ccc(OC)c(C(c2c(O)c3ccccc3oc2=O)c2c(C)n(C)n(-c3ccccc3)c2=O)c1 (stereo not given) | 1.41 µM [falling, full curve] | 
44 | CCCCNC(=O)c1c(N)n(CCCOC)c2nc3ccccc3nc12 | 23.1 µM [falling, single point] | 
45 | Cc1cnc(-n2c(=S)[nH]c3ccccc3c2=O)s1 | 13 µM [rising, partial curve, poor fit] | 
46 | CC(C)[C@@]1(NC(=O)[C@@H]2C[C@@H]3c4cccc5[nH]cc(c45)C[C@H]3N(C)C2)O[C@@]2(O)[C@@H]3CCCN3C(=O)[C@H](Cc3ccccc3)N2C1=O | 20 µM [falling, single point] | 
47 | O=C1CN=C(c2cccc(Br)c2)c2cc(Br)ccc2N1 | 0.1 µM [rising, full curve, poor fit] | 
48 | O=c1[nH]c(=S)[nH]c(O)c1N=Nc1ccc2c(c1)OCCO2 | 3.16 µM [falling, full curve] | 
49 | Cn1c(/C=C/c2ccc(Cl)cc2)c([N+](=O)[O-])c(=O)n(C)c1=O | 17.8 µM [falling, partial curve, poor fit] | 
50 | COc1ccc2[nH]c3c(c2c1)CCN=C3C | 9.2 µM [falling, partial curve, poor fit] | 
51 | Cc1c(C(=O)N2CCC3(CC2)OCCO3)oc2ccccc12 | 7.31 µM [rising, partial curve, poor fit] | 
52 | Cc1c(N=Cc2c(O)n(CCc3ccc(F)cc3)c(=O)[nH]c2=O)c(=O)n(-c2ccccc2)n1C | 29.1 µM [falling, single point] | 
53 | COC(=O)C1=C(c2ccc(F)cc2OCc2ccccc2)C[C@@H]2CC[C@H]1N2C(=O)NC1CCN(Cc2ccccc2)CC1 | 29.1 µM [falling, single point] | 
54 | CCOc1ccc(C2C(C#N)=C(N)Oc3c2c(=O)oc2ccccc32)cc1 (stereo not given) | 1.26 µM [falling, full curve, poor fit] | 
55 | CCN(CC)c1ccc(CNCCc2ccc(F)cc2)cc1 | 35.5 µM [falling, single point] | 
56 | C/C(=N\NC(=O)c1ccccc1)c1c(O)n(Cc2ccccc2)c(=O)[nH]c1=O | 7.94 µM [falling, partial curve] | 
57 | Clc1cc(Cl)cc(NC2=NCCS2)c1 | 5.62 µM [rising, single point] | 
58 | CC(=NCCCN1CCCCC1)c1c(O)n(Cc2ccccc2)c(=O)[nH]c1=O | 29.1 µM [falling, single point] | 
59 | CC(C)C(=O)Nc1nnc(CCN(CCc2nnc(NC(=O)C(C)C)s2)[N+](=O)[O-])s1 | 0.501 µM [rising, full curve, poor fit] | 
60 | CCN(CC)C(=O)c1ccc(NC(=O)C2=C(C)OCCS2)cc1 | 3.98 µM [rising, single point] | 
61 | Cc1nc2ccc(Cl)cc2c(=O)n1-c1cccc(Cl)c1 | 7.08 µM [rising, full curve, poor fit] | 
62 | CCC12C=CCN3CCC4(c5cc(Br)c(OC)cc5N(C)C4C(O)(C(=O)OC)C1OC(C)=O)C32 (stereo not given) | 12.6 µM [falling, single point] | 

Reference: PubChem BioAssay AID493014 (National Center for Advancing Translational Sciences (NCATS), 2011)
